# According to PubChem BioAssay AID1487 (National Center for Advancing Translational Sciences (NCATS), 2009):
# In all, about 200,000 compounds went through this assay and about 25 (0.01%) were called active. Inconclusive results, whose numbers are uncertain, are shown with a selection of clear calls. Calls follow the shape of the dose curve; as a rule, active = well fitted inhibition curve with a large enough effect in the signal ratio, with a control signal flat (not every such curve was filed as active); inconclusive = small, poorly fitted or top-dose-only effect, or effect the other way, or a change in a side signal; inactive = flat fitted curve, though single readings scatter; the % refers to the signal ratio. Where the call is inconclusive, the potency comes from a doubtful curve fit.
# Experiment: qHTS Assay for Modulators of Lamin A Splicing
# Details: HeLa LMNA splicing GFP/RFP minigene ratio, 48 h; ratio change, negative = inhibition: at 46.1 µM (top of the series) unless noted
# Outline: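 S3 HeLa stable clones carrying a lamin A-EGFP splicing minigene plus DsRed2 were seeded at 600 cells/well in Opti-MEM with 2% FBS, pin-dosed and incubated 48 h at 37°C. Acumen cytometry (488 nm) gave the GFP/RFP total-intensity ratio.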
# % is scaled to controls: 0 for no effect and ±100 for the full control effect; potency is read from the fitted curve at half-maximal effect.
Compound,"ratio change, negative = inhibition",Potency
CCOc1ccc(N2C(=O)CC(Sc3nc(C)cc(C)n3)C2=O)cc1 (stereo unspecified),inconclusive: -4.9%,–
CCCNC(=S)N1CCC(C(=O)c2ccc3c(c2)OCCO3)CC1,inconclusive: 7.24% [at 46 µM],–
CCOC(=O)c1sc2ncnc(NCc3ccco3)c2c1C,inconclusive: 39.9%,–
COCCN(CCOC)Cc1c(C)[nH]c2ccccc2c1=O,inconclusive: 4.85%,–
Cn1nc(C(F)(F)F)c(-c2ccccc2)c1NC(=O)c1ccco1,inconclusive: 8.25% [at 46 µM],–
CC(C)(C)OC(=O)N1CC(O)CC1C(=O)OCC(=O)c1ccc(Cl)cc1 (stereo unspecified),inconclusive: -36.1% [at 46 µM],–
CCOc1ccc(-c2cc(CCCC(=O)NCc3cccnc3)no2)cc1,inconclusive: -38.1%,–
COc1ccc(N(Cc2cccs2)C(=O)COc2ccc([N+](=O)[O-])cc2)cc1,inactive,–
Cc1cc(=O)oc2cc(OCC(=O)OCC(=O)N(CCC#N)c3ccccc3)ccc12,inconclusive: -3.8% [at 46 µM],–
COc1ccccc1N(Cc1ccccc1)S(=O)(=O)c1cccc(C(=O)Nc2ccc(C(C)=O)cc2)c1,inconclusive: 1.94%,–
COc1ccccc1-c1noc(CCC(=O)Nc2cccc(C)c2)n1,inactive,–
COc1ccc(Nc2ccccc2N)cc1,inconclusive: -35.8% [at 46 µM],–
CCN(c1ccccc1)S(=O)(=O)c1nnc(NC(=O)C(C)Oc2ccccc2)s1 (stereo unspecified),inconclusive: 32.6% [at 46 µM],–
COc1ccc(/C=C\C(=O)c2c(O)ccc3c(C)cc(=O)oc23)cc1OC,–,"inconclusive: 35.5 µM [cytotoxic, single point]"
CCOC(=O)CNC(c1ccccc1)c1cc(Br)ccc1NC(=O)OCC (stereo unspecified),inconclusive: 1.77%,–
Cc1cccc(NC(=O)c2ccc(CN3CCN(Cc4ccccc4)CC3)cc2)c1,inconclusive: -9.97% [at 46 µM],–
O=C(Cc1cn2ccsc2n1)NCc1ccccc1,inactive,–
Cc1ccc(-n2c(=O)c(C#N)cc3c(=O)n4cccc(C)c4nc32)cc1,inactive,–
Cc1ccc(-n2c3c(cc(C(=O)NCc4ccco4)c2=O)C(=O)CCC3)cc1,inconclusive: 0.843% [at 46 µM],–
CCc1ccc2ncc3c(-c4ccc(C)cc4)nn(CC(=O)Nc4ccc(C)cc4)c3c2c1,inactive,–
O=C(CSc1nnc([C@@H]2CCCN2)o1)c1ccc(Cl)cc1,inactive,–
Cn1c(=O)n(CCCOc2ccc(Br)cc2)c2ccccc21,inconclusive: -31.9%,–
O=[N+]([O-])c1cccc(-c2csc(CS(=O)(=O)Cc3ccco3)n2)c1,inconclusive: 22% [at 46 µM],–
Fc1ccc2nc3[nH]c4ccccc4c3nc2c1,inconclusive: 31%,–
COC(=O)C1=C(C(=O)OC)[C@@H]2N(C)c3ccc(OC)cc3[C@@]23C[C@@H](C(=O)OC)N(C(=O)c2cccs2)C3=N1,inconclusive: -10.3% [at 9.22 µM],–
O=C1COc2ccc(C(=O)COC(=O)c3cnc(Cl)c(Cl)c3)cc2N1,inconclusive: -2.67% [at 46 µM],–

Compound,"ratio change, negative = inhibition",Potency
CC(C)CC(=O)NS(=O)(=O)c1ccc(N)cc1,inactive,–
CC(C)NS(=O)(=O)c1ccc(N2C(=O)c3ccccc3C2=O)cc1,inconclusive: 7.29%,–
Cc1cc(C(=O)N/N=C/c2ccc(C)o2)c2ccccc2n1,inconclusive: -27.2%,–
CCCCNC(=O)CC1S/C(=N/N=C/c2ccc(OC)cc2)NC1=O (stereo unspecified),inconclusive: 9.57% [at 46 µM],–
Cn1nc(-c2ccc(N3CCOCC3)c(NS(=O)(=O)c3ccc(Cl)cc3)c2)c2ccccc2c1=O,inconclusive: -0.843% [at 0.0737 µM],–
O=C(Nc1ccc(S(=O)(=O)Nc2nccs2)cc1)C1CC(=O)N(c2ccccc2)C1 (stereo unspecified),inactive,–
COC(=O)CNC(=O)c1c(-c2ccccc2Cl)noc1C,inactive,–
O=C(/C(=N/N=C/c1ccc(O)c(O)c1O)c1ccccc1)c1ccccc1,–,"inconclusive: 35.5 µM [inhibitor, single point]"
COc1ccc(C)cc1-n1nnnc1SCC(=O)c1ccc2c(c1)OCCO2,–,"inconclusive: 14.1 µM [fluorescent, single point]"
C=CCN1CCc2cc(O)c(O)cc2C(c2ccccc2)C1 (stereo unspecified),–,"inconclusive: 25.1 µM [inhibitor, partial curve]"
c1ccc(COc2ccc(OCCCCN3CCCC3)cc2)cc1,inactive,–
COc1ccc(C2C(C#N)=C(N)Oc3c2c(C)nn3-c2ccccc2)cc1Cn1nc(C)c([N+](=O)[O-])c1C (stereo unspecified),inconclusive: 4.74%,–
CCCOc1ccc(-c2nc[nH]c2[N+](=O)[O-])cc1,inconclusive: 2.61% [at 46 µM],–
COc1ccccc1N1CCN(C(=O)/C=C/c2ccco2)CC1,inactive,–
Cc1cc(=O)[nH]c(NCCO)n1,inconclusive: -18.6% [at 46 µM],–
O=c1[nH]c(Cc2cccs2)nc2scc(-c3ccc(Cl)cc3)c12,inconclusive: -0.471% [at 46 µM],–
COCCCNC(=O)CC1C(=O)N(Cc2ccccc2)C(C)c2nc3ccccc3n21 (stereo unspecified),inconclusive: 21.1% [at 9.22 µM],–
Cc1cc(C)c2nc(NC(=O)c3ccc(S(=O)(=O)N4CCC(C)CC4)cc3)sc2c1,inconclusive: 16.1% [at 46 µM],–
CCn1c(=O)n(CC)c2cc(N)ccc21,inconclusive: -31% [at 46 µM],–
COc1ccc(Nc2cc(C(=O)NCCCN(C)Cc3ccccc3)c3ccccc3n2)cc1,inconclusive: -27.7% [at 46 µM],–
CCN(CC)C(=O)N1CCC(NC(=O)c2ccc(C(C)(C)C)cc2)CC1,inconclusive: -21.8%,–
NS(=O)(=O)c1cc2c(cc1Cl)NC(C1C[C@H]3C=C[C@@H]1C3)NS2(=O)=O (stereo partly specified),inconclusive: 0.14%,–
COc1ccc(C(CNC(=O)/C=C/c2c(Cl)nc3ccccn23)N(C)C)cc1 (stereo unspecified),inconclusive: -17% [at 46 µM],–
COc1cc(N)c(Cl)cc1C(=O)N[C@H]1CCN(CCCOc2ccc(F)cc2)C[C@H]1OC,inconclusive: -13.2%,–
COc1ccc(NC(=O)Cn2cnc3c(oc4ccccc43)c2=O)cc1OC,inconclusive: 22.1% [at 46 µM],–

# A different layout for part of the listing above:
Compound	ratio change, negative = inhibition	Potency
CC(C)(C)OC(=O)N1CC(O)CC1C(=O)OCC(=O)c1ccc(Cl)cc1 (stereo unspecified)	inconclusive: -36.1% [at 46 µM]	–
CCOc1ccc(-c2cc(CCCC(=O)NCc3cccnc3)no2)cc1	inconclusive: -38.1%	–
COc1ccc(N(Cc2cccs2)C(=O)COc2ccc([N+](=O)[O-])cc2)cc1	inactive	–
